From paper PMC11734750, “Using environment-sensitive tetramethylated thiophene-BODIPY fluorophores in DNA probes for studying effector-induced conformational changes of protein–DNA complexes” (RSC Chemical Biology, 2025)
For at least one entry, the source does not settle the construct or the ends of the probe.

System: LutR-DBD (Bacillus subtilis)
Assay: EMSA
Details: dose-dependent shift; EMSA: 50 mM Tris-HCl, 0.1% Triton X-100, pH 7.6 buffer (2 of 6 ul) plus KCl (500 mM stock, 1 ul) and LutR storage buffer (250 mM NaCl, 20 mM Tris-HCl pH 7.5, 5 mM DTT); recombinant protein

GGTCATCAGATGACC (double strand) [15-bp LutR operator DNA]
binding result: binds
